# Primary screen of a compound library

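Assay of Toxoplasma gondii numbers, read through their beta-galactosidase reporter with a colour substrate. Compounds at 50 µM. The record gives no direction; the compounds picked for IC50 retests had high values, so higher reads as fewer parasites. Size under these conditions: about 18,000 compounds, about 170 of them at 50% or above in at least one test.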

The filed quantity is “Percent Effect” (%). The controls that fix the scale are not given in the record; negative values are as filed. This is an unselected part of the compounds tested.

| compound | effect |
|---|---|
| `CCOC(=O)c1conc1Br` | 1.885% |
| `CC(=O)Nc1nc(COc2ccc(C)cn2)cs1` | 1.389% |
| `CCS(=O)(=O)NCC(C)(C)CNS(=O)(=O)CC` | -41.99% |
| `CC(C)(CNC(N)=O)N1CCc2ccccc2C1` | -7.351% |
| `Cc1nccn1C1CCCNC1` (stereo not drawn) | 4.957% |
| `CCCNC(=O)Nc1ccccn1` | 3.994% |
| `Cc1cncc(NS(=O)(=O)CCc2ccccc2)c1` | 3.283% |
| `OC1(Cc2ccccc2F)CCNC1` (stereo not drawn) | 78.69% |
| `CCc1ccsc1C(N)=O` | 2.327% |
| `CCCn1ccc(CN)n1` | -7.206% |
| `C[C@]1(O)CCN(c2nnc(-c3ccccc3)s2)C[C@@H]1O` | -0.4525% |
| `CN(C)[C@@H]1CN(C(=O)c2ccnc(O)c2)C[C@H]1CO` | -5.951% |
| `CCNC(=O)N1CCCN(Cc2ccsc2)CC1` | -15.98% |
| `NC(CCN1CCOCC1)c1ccccc1` (stereo not drawn) | 2.178% |
| `COCCNC(=O)Cc1cc(OC)c(OC)c(OC)c1` | -8.226% |
| `OCCCNc1ccnc2ccc(Cl)cc12` | -1.206% |
| `CCSCC(C)N(C)CC(=O)Nc1c(C)n[nH]c1C` (stereo not drawn) | -35% |
| `CN(C)c1ccc(CNS(C)(=O)=O)cn1` | -12.34% |
| `Cc1cnc(C)c(N2CCC3(CC2)CNC(=O)C3)n1` | -2.648% |
| `Cc1cc2c(cc1CN)OCCO2` | -26.83% |
| `CC(NC(=O)C1CCCC1)c1ccc(S(C)(=O)=O)cc1` (stereo not drawn) | -4.699% |
| `CN(CC(C)(C)O)C(=O)CCc1ccsc1` | 3.148% |
| `COCCN1CCCN(C(=O)C(C)(C)C)CC1=O` | 1.912% |
| `Cc1ccc(NC(=O)CN2CCNCC2)c(C)c1` | -5.303% |
| `CN(C)CC1(CO)CCCN(Cc2ccoc2)C1` (stereo not drawn) | -1.61% |
| `CCN(CCO)C(=O)C(C)(C)Oc1ccc(F)cc1` | 4.161% |
| `CC(C)CNc1nc(N)c2cn[nH]c2n1` | -6.982% |
| `O=C(Cn1cc(Br)ccc1=O)NCc1ccon1` | -3.886% |
| `COC(=O)c1sccc1NC(=O)CSc1nnc(N)s1` | -8.181% |
| `O=C(Nc1nc2ccccc2[nH]1)C1CCCO1` (stereo not drawn) | 8.104% |
| `CCC(=O)NC1CNC1` | -4.923% |
| `CC(=O)Nc1cc(Br)cnc1NC(C)=O` | -0.5087% |
| `CC1CCN(C(=O)NCCCOC2CCOCC2)C1` (stereo not drawn) | 3.318% |
| `N[C@@H]1C[C@H]1c1ccc(F)cc1F` | -2.678% |
| `CCn1cncc1CN1CCC(NC(C)=O)CC1` | -10.12% |
| `CCOc1ncccc1C(=O)N1CCCN(CC)CC1` | 8.353% |
| `COc1cnccc1C(C)N` (stereo not drawn) | 1.908% |
| `O=C1CNCCN1c1cccc(F)c1` | -6.044% |
| `Cn1nccc1CNC1CC1` | 14.35% |
| `COc1ccc2[nH]c(CNC(=O)CNC(N)=O)cc2c1` | -0.3528% |
| `Cc1cc(CNC(=O)CSc2ccncc2)on1` | 3.409% |
| `CC(C)C1CN(C)CCN1Cc1ccc(C#N)o1` (stereo not drawn) | 12.62% |
| `CN1CCN(Cc2cccnc2)C2(CCCCC2)C1` | 11.88% |
| `CCc1ccc(C(=O)N(CC)C2CCS(=O)(=O)C2)cc1` (stereo not drawn) | -6.496% |
| `CC(NC(=O)c1ccc(=O)n(C)n1)C1CC1` (stereo not drawn) | -5.547% |
| `O[C@H]1C[C@@H](c2cc(NCCn3cnnn3)ncn2)C1` | 1.678% |
| `CCN(CC(=O)N(C(C)CS(C)(=O)=O)C1CC1)C1CC1` (stereo not drawn) | -4.782% |
| `COc1cccc(N2CCCC(N)C2)c1` (stereo not drawn) | 28.91% |
| `Cc1noc(OCC(=O)N(C)Cc2ccc(F)cc2)n1` | 0.6586% |
| `O=C1CCN(C2CCCc3ccc(F)cc32)CCN1` (stereo not drawn) | -4.547% |
| `CSc1nnc(NC(C)(C)C)s1` | 0.8782% |
| `COC(C)C(=O)NCCNc1cccc(Br)c1` (stereo not drawn) | -0.6543% |
| `COc1cccc(C2CNCCO2)c1` (stereo not drawn) | 2.082% |
| `Cc1nc(NCc2n[nH]c(=O)[nH]2)cc(C2CC(O)C2)n1` (stereo not drawn) | 12.89% |
| `CSCCC(O)C(=O)N(C)Cc1cnccn1` (stereo not drawn) | 17.49% |
| `CN(CCO)c1ccnc(C#N)c1` | -79.98% |
| `O=C(c1csc(Br)c1)N1CCOCC1` | 3.875% |
| `CCc1noc(CS(=O)(=O)C(C)C(=O)NC2CC2)n1` (stereo not drawn) | -3.596% |
| `Cc1nc(CN2CCC(CN)CC2)cs1` | -0.9962% |
| `CC1CN(C(=O)NCc2ccc(Br)s2)CC(=O)N1C` (stereo not drawn) | -11.37% |
| `O=C(Cn1ccc(C(F)(F)F)n1)Nc1ccccn1` | 15.8% |
| `CCC[C@H]1CN(CCCO)C[C@@H]1NC(=O)c1cnn[nH]1` | -9.863% |
| `NCCCN1C(=O)c2ccccc2C1=O` | -14.22% |
| `Cc1cc(F)c(Br)cc1NC(=O)C(C)S(C)(=O)=O` (stereo not drawn) | -6.479% |
| `CNC(=O)CN1CCCC(CO)(CCCOC)C1` (stereo not drawn) | 5.203% |
| `CCOc1ccc(NC(=O)NC2CCS(=O)(=O)C2)cc1` (stereo not drawn) | 3.188% |
| `CC(CCS(C)(=O)=O)NC(=O)N1CCC=C(Br)C1` (stereo not drawn) | 7.506% |

6 of the entries, repeated:

Cn1nccc1CNC1CC1 read 14.35%.
O=C(Cn1cc(Br)ccc1=O)NCc1ccon1 read -3.886%.
Cc1cnc(C)c(N2CCC3(CC2)CNC(=O)C3)n1 read -2.648%.
Cc1nc(NCc2n[nH]c(=O)[nH]2)cc(C2CC(O)C2)n1 (stereo not drawn) read 12.89%.
CCSCC(C)N(C)CC(=O)Nc1c(C)n[nH]c1C (stereo not drawn) read -35%.
Cc1cc2c(cc1CN)OCCO2 read -26.83%.

From ChEMBL document CHEMBL3988442, “University of Dundee, Small-Polar-MMV Screening Library” (2021).